# Results of single-concentration screens

Amino acid sequences for entries named in this document (tags omitted). Residues count along the entry.
UniProt Q4DA54, 1-478: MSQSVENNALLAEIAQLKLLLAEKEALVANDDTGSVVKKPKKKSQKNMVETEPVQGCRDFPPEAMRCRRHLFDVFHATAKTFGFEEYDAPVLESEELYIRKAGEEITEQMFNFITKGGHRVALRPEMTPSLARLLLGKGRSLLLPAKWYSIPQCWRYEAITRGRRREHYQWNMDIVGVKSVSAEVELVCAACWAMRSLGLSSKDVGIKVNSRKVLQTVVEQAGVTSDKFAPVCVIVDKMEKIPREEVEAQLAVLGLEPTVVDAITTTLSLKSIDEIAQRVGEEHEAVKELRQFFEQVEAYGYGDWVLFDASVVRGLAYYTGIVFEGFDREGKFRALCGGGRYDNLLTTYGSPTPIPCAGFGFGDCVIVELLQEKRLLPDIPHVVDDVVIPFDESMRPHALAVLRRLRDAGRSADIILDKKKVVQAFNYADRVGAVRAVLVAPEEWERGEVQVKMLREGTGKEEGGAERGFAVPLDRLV

Results are given as percent effect. The record does not define 0% and 100%; most values in the screen are far below 50% and negative numbers occur (in some assays of this library far below -100). This is an unselected part of the compounds tested.

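Histidine-tRNA ligase, Trypanosoma cruzi CL Brener (UniProt Q4DA54). Enzyme assay of histidyl-tRNA synthetase; the read-out is not stated. Compounds at 30 µM. The record gives no direction; compounds that gave an IC50 in retests scored well above the rest, so higher reads as stronger inhibition. Size under these conditions: about 69,000 compounds, about 31 of them at 50% or above in at least one test.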

compound,effect
CN(C)c1cc(C2CCCN2C(=O)c2ccc(=O)n(C)c2)ccn1 (centres unmarked),3.042%
O=C(COc1ccccc1N1CCCC1)N1CCN[C@H]2CS(=O)(=O)C[C@H]21,1.163%
CN(Cc1cc2cc(F)ccc2[nH]1)C(=O)C1CC(=O)N(C(C)(C)C)C1 (centres unmarked),3.863%
Cc1nn(C)c2ncc(CN3CCN(c4ncccn4)CC3)cc12,10.1%
COCCNc1nc2c(c(NCc3cnc(C)cn3)n1)CCNCC2,9.091%
O=S(=O)(N1CCCC1)N1CC(c2ccnc(Nc3ccccn3)n2)C1,1.149%
CCN1CCOCC2(CCCN(C(=O)c3cnccn3)C2)C1 (centres unmarked),1.442%
CCN1CCc2c(c(COC)nn2C)C1,0.9709%
COc1cccc(CNCc2nc3ccccc3c(=O)[nH]2)c1,0.3759%
O=C(c1csc(Br)c1)N1CCCC(n2ccnc2)C1 (centres unmarked),1.128%
CC(C)N1CCC(C(=O)N2CCC(C(O)c3nccn3C)CC2)CC1 (centres unmarked),7.463%
COc1c(C2CCCN2Cc2nnc(C3CC3)o2)c(C)nn1C (centres unmarked),0%
Cc1cnc(CN(Cc2cccc(O)c2)CC2CC2)cn1,-2.439%
C1CC(CN2CC[C@@H]3O[C@@H](c4nnc(C5CC5)o4)C[C@H]3C2)CCO1,3.81%
Oc1cccc(CNC2CCN(CCc3ccncc3)CC2)c1,2.174%
Cc1ccc(NC(=O)CNC(C)CN2CCOCC2)c(F)c1 (centres unmarked),5.056%
CCOc1ccnc(N2CCN(C(=O)CCc3ccncc3)CC2)n1,4.082%
CCS(=O)(=O)CC(=O)Nc1cccc2c1CN(CC(C)C)C2,1.235%
Cc1cccc2c(CCNC(=O)[C@H](N)c3ccccc3)c[nH]c12,0.5405%
O=C(CCc1nnc(-c2ccsc2)o1)NCC1CCN(C2CC2)C1 (centres unmarked),1.657%
O=S(=O)(Cc1c(F)cccc1Cl)NCCCN1CCCCCC1,8.696%
COc1c(C2CCCN2C(=O)c2ccnn2C)c(C)nn1C (centres unmarked),5.155%
CC(NCc1cnc(N2CCN(C)CC2)nc1)c1ccc(F)cc1 (centres unmarked),1.657%
c1ccc(CN2CCCC(CNc3ncnc4c3CCNCC4)C2)cc1 (centres unmarked),26%
COCC(=O)N1CCCC(c2nc(N)ncc2-c2cccc(F)c2)C1 (centres unmarked),2.682%
CN1CCC(NC(=O)Cc2csc(C(C)(C)C)n2)CC1,-2.564%
Cc1ccc(NC(=O)c2ncc(C(N)=O)cc2Cl)cc1F,5.521%
CC1=CC[C@@H]2CN(C(=O)c3ccc(-c4nnn(C)n4)cc3)C[C@@H]2C1,0.8%
COCCN(C(=O)c1cc(-c2ccc(C)s2)[nH]n1)C1CC1,1.724%
CC(C)NC(=O)CC1CC2(CCN(S(C)(=O)=O)CC2)c2ccccc21 (centres unmarked),5.6%
COCCN1CCC(NCc2c(C)nn(C)c2N(C)C)CC1,9.412%
CCOC(=O)CCC(=O)N1CCC(CSCc2ccco2)CC1,8.889%
CCn1cc(NC(=O)NCC(C)(C)N2CCc3ccccc3C2)cn1,8.455%
Cc1ccc2c(n1)N(CCN(C)C)CCN(C(=O)c1cscn1)C2,7.143%
CCC(=O)N1CCC1c1cc(NC2CCCC2)nc(C)n1 (centres unmarked),5.556%
CC(NC(=O)N1CCC(c2ccccc2)CC1)c1nncn1C (centres unmarked),5.65%
O=C1OCCCN1Cc1nc(-c2ccncc2)no1,3.571%
Cc1cc(C)c2c(c1)C(NC(=O)CSc1nnc[nH]1)CCO2 (centres unmarked),2.521%
CC(C)N1CCCC(C(=O)N2CCN(c3cnn(C)c(=O)c3)CC2)C1 (centres unmarked),2.273%
O=C(Cn1c(=O)oc2ccccc21)N1Cc2cncnc2C1,6.186%
Cn1ccc2c(NC(=O)Cn3ncc4c(c3=O)CCCC4)cccc21,7.216%
Cc1ccc(C(=O)Nc2cc(C(N)=O)ccc2CN(C)C)cc1Cl,10.83%
COCCN(CCOC)C(=O)c1ccoc1C,2.941%
CCc1n[nH]c(C2CN(C(=O)c3cnc(C)nc3CC)CCO2)n1 (centres unmarked),0.5714%
CC(C)N1C(=O)CN(CCCO)CC1(C)C,1.042%
CCOCCCNC(=O)Cc1cccs1,2.312%
N#Cc1ccsc1NC(=O)CN1CCOC(Cn2cccn2)C1 (centres unmarked),3.529%
Clc1ccc(CN(CCN2CCOCC2)Cc2cccnc2)cc1Cl,10.9%
CSCCCN1CCC(c2nnc(Cn3ccnc3)n2C2CC2)CC1,6.818%
Cn1nccc1-c1nnn2c1COCC(CNCC1CC1)C2 (centres unmarked),8.466%
CO[C@H]1CN(C(=O)c2cc3ccccc3[nH]2)CC[C@H]1N,4.478%
COc1ncccc1CN1CCC2(CC1)CC(OCC1CC1)CO2 (centres unmarked),8.889%
COc1ccc(-c2noc([C@@H]3C[C@@H](O)CN3C3CCCCC3)n2)cc1,4.348%
CC1(C(=O)NCc2ccsc2)CCOCC1,-24.26%
Clc1ccccc1C1CN(CCc2ccncc2)CCO1 (centres unmarked),8.911%
O=C(CCc1nc(Cl)n[nH]1)NC1CCCN(C2Cc3ccccc3C2)C1 (centres unmarked),8.046%
CS(=O)(=O)c1ccc2c(c1)N(C(=O)Cc1cccc(F)c1)CCC2,4.891%
CS(=O)(=O)c1ccc(C(=O)N2CCCC(n3ccnc3)C2)cc1 (centres unmarked),-1.744%
CC(=O)N1CCC(c2nccnc2Oc2ccccc2)CC1,10.27%
CC(C(=O)N1CCOCC1)S(=O)(=O)Cc1noc(C(C)(C)C)n1 (centres unmarked),1.478%
CCN(CC1CCCO1)S(=O)(=O)c1cc(NC(C)=O)ccc1C (centres unmarked),5.946%
Cc1cnc(CNC(=O)C[C@@H]2COC[C@H]3CN(C4CCC4)C[C@@H]23)cn1,2.454%
CCc1noc(C(C)Sc2nnc(C3CC3)n2CC(N)=O)n1 (centres unmarked),6.878%
Cc1oncc1C(=O)N1CCC(O)(CN2CCOCC2)C(C)(C)C1 (centres unmarked),6.186%
COc1cc(N2CCCC(CO)(Cc3ccccc3F)C2)ncn1 (centres unmarked),0.8%
CCNC(=O)NC(C)(C)C(=O)NCCc1csc2ccccc12,6.329%
CCc1c(C)sc2c1c(N)nc(=O)n2CCN1CCOCC1,2.591%
CC(C)NC(=O)CCN1CCC(C(=O)c2cc(F)ccc2F)CC1,-0.9804%
O=C(NC1CCCCC1)NC1CCCc2c1cnn2CCO (centres unmarked),6.667%
CC(C)OCCOCc1cccc(NC(=O)NCc2cnn(C)c2)c1,-0.5952%
N#Cc1ccc(CNCCc2cc(F)cc3c2OCOC3)cc1,2.679%
CCNc1ncc(C(=O)N2Cc3nc(C)[nH]c(=O)c3C2)cn1,6.931%
COc1ccccc1C(C)(C)NC(=O)NC1CCC(O)CC1 (centres unmarked),12.02%
Cc1cnc(CN2CC=C(c3c[nH]c4ncccc34)CC2)o1,3.509%
O=c1c(Cc2ccccc2)c(O)ccn1Cc1ccco1,11.46%
COC[C@@]12CC[C@@H](N3CCOCC3)C[C@H]1CCN(c1cnccn1)C2,5.102%
COc1cccc(CN(C)c2ncc(C(N)=O)cc2Cl)c1,6.667%
O=S(=O)(NC1CC1)c1cccc(Br)c1,2.618%
O=C(NCCNc1ccc(C(F)(F)F)cn1)c1cc(Cl)ccc1F,7.289%
Cc1ccc2nc(C3CCCN(CC(C)C)C3)nc(O)c2c1 (centres unmarked),1.775%
CC(CCS(C)(=O)=O)NC(=O)NCc1ccc2ccccc2c1 (centres unmarked),10.97%
COCCCN1CC2(CCN(C(=O)c3ncc(F)cc3F)CC2)CC1=O,9.045%
Cc1ccc(NCc2ccc(C#N)cc2)cc1-n1cnnn1,10.31%
COc1cc(F)ccc1-c1cc(CO)ccn1,4.706%
Cc1ccc(O)c(C(=O)NCCS(=O)(=O)Cc2ccccc2)c1,-3.158%
Cc1c(NC(=O)N(C)CCO)cccc1OC1CCCC1,6.077%
CC(C)N1CCc2ncn(C)c2C1C(=O)NCCN1CCCC1 (centres unmarked),-0.9804%
O=C(Cc1cccc(F)c1)NCCNCc1cccc(O)c1,3.053%
CNC(=O)c1ccc(C(=O)N2CCCC(n3ccnc3C)C2)cn1 (centres unmarked),5.202%
O=C(c1cc2cccc(F)c2[nH]1)N1C[C@@H](O)[C@H](N2CCOCC2)C1,3.143%

Once more, the final 10:

compound	effect
CC(CCS(C)(=O)=O)NC(=O)NCc1ccc2ccccc2c1 (centres unmarked)	10.97%
COCCCN1CC2(CCN(C(=O)c3ncc(F)cc3F)CC2)CC1=O	9.045%
Cc1ccc(NCc2ccc(C#N)cc2)cc1-n1cnnn1	10.31%
COc1cc(F)ccc1-c1cc(CO)ccn1	4.706%
Cc1ccc(O)c(C(=O)NCCS(=O)(=O)Cc2ccccc2)c1	-3.158%
Cc1c(NC(=O)N(C)CCO)cccc1OC1CCCC1	6.077%
CC(C)N1CCc2ncn(C)c2C1C(=O)NCCN1CCCC1 (centres unmarked)	-0.9804%
O=C(Cc1cccc(F)c1)NCCNCc1cccc(O)c1	3.053%
CNC(=O)c1ccc(C(=O)N2CCCC(n3ccnc3C)C2)cn1 (centres unmarked)	5.202%
O=C(c1cc2cccc(F)c2[nH]1)N1C[C@@H](O)[C@H](N2CCOCC2)C1	3.143%

Measurements from “University of Dundee, Small-Polar-MMV Screening Library” (2021), ChEMBL document CHEMBL3988442.